Data taken from article PMC6721651.
Results are given in words; binding and its absence hold for the method and conditions named. In cells and extracts the contact can be indirect. Some entries that bind do so weakly or less than the wild type.

Amino acid sequences for entries named in this document (tags omitted).
UniProt O15379: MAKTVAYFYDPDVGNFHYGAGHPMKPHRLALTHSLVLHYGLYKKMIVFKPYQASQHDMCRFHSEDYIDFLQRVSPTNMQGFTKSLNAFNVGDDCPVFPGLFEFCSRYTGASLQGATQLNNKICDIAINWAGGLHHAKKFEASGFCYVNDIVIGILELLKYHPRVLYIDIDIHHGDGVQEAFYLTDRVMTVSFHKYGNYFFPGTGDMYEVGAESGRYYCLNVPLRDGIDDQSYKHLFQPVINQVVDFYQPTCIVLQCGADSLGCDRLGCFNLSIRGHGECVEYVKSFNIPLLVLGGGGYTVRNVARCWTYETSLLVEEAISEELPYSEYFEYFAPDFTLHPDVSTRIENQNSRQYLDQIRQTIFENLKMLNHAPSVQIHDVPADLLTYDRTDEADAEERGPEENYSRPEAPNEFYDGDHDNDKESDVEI

Biological target: epidermal growth factor receptor (human (endogenous in MDA-MB-231)) (UniProt P00533)
Experiment: co-IP; membrane protein fraction of MDA-MB-231 cells treated with EGF for 20 min; IP with the indicated antibodies and G plus/protein A-agarose beads, overnight at 4 °C; Western blot

In the case of “histone deacetylase 3 (from UniProt O15379 1-428) (enzyme)”, the binding was “binds”.
